The test has as its target TAR DNA-binding protein 43 (mouse (endogenous in adult mouse brain and primary mouse cortical neurons)) (UniProt Q921F2). Description: co-IP.

The chains behind the UniProt entries cited, without tags or fusion partners.
UniProt Q921F2: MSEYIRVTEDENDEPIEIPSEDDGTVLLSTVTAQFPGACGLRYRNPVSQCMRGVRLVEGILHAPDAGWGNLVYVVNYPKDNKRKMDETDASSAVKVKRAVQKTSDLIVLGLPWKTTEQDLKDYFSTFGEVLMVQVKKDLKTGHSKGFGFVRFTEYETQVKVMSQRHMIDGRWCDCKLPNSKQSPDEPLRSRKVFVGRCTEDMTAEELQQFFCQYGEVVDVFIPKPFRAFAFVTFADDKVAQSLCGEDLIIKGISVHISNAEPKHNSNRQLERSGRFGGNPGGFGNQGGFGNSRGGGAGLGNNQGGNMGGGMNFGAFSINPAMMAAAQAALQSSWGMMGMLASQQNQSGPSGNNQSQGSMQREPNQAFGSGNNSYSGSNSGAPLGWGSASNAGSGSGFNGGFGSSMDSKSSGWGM

In publication doi:10.1101/589416 one finds binding data, which are given here for one molecule.

Results are given in words; binding and its absence hold for the method and conditions named. Binding seen in cells or lysates may run through a third protein. Some binding calls cover weakened binding; strength is not graded here.

B1: STAU2 (protein, UniProt Q8CJ67 1-570)
chain: MANPKEKTPVCLVNELARFHSIQPQYKLLNESGPAHSKMFSVQLSLGEQTWESEGSSIKKAQQAVANKALTESTLPKPVQKPPKSNVNNNPGSITPTVELNGLAMKRGEPAIYRPLDPKPFPNYRANYNFRGMYNQRYHCPMPKIFYVQLTVGNNEFFGEGKTRQAARHNAAMKALQALQNEPIPEKSPQNGESGKEMDDDKDANKSEISLVFEIALKRNMPVSFEVIKESGPPHMKSFVTRVSVGEFSAEGEGNSKKLSKKRAATTVLQELKKLPPLPVVEKPKLFFKKRPKTIVKAGPDYGQGMNPISRLAQIQQARKEKEPDYILLSERGMPRRREFVMQVKVGNEVATGTGPNKKIAKKNAAEAMLLQLGYKASTSLQDPLDKTGENKGWSGPKPGFPEPTNNTPKGILHLSPDVYQEMEASRHRVTSGTTLSYLSPKDMNQPSSSFFSVSPSSTSSATVARELLMNGTSPTAEAIGLKGSSPTSPCSSVQPSKQLEYLARIQGFQAALSALKQFSEQGLESIDGAVNVEKGSLEKQAKHLREKADNNQAKPASISQDCKKSKSAI
On to B1, for which the binding entry is “binds”.
